Residue numbers refer to the chain shown, from its start. Results are given in words; binding and its absence hold for the method and conditions named. Some results given as binding are weak or reduced against the parent protein; the word gives no strength. Where a sequence is shown, tags or fusion partners need not be part of it.
T1: Ara h 2 (Arachis hypogaea allergen 2) (Arachis hypogaea, UniProt Q6PSU2 22-172)
T1 construct: Peanut allergen; also called nAra h 2; natural Ara h 2
T1 sequence: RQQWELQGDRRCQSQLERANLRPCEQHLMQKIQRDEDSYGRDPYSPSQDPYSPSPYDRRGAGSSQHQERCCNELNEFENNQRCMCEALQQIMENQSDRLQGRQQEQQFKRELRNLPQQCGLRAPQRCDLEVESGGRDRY

B1: 7G6 (antibody, V domains shown)
VH: QVQLVESGGGVVQPGRSLRLSCAASGIAFNDYTMHWVRRSPDKGLEWVAAISYGGTNKYYADSVKGRFTISRDSSKNTLFLQMDSLRVEDTAVYYCARDSGYRSLLHWGQGTLVTVSS
VL: EIVLTQSPLSLPVTPGEPASISCRSSQSLVHRNGYNYLDWYLQKPGQSPQLLIYMASKRASGVPDRFSGSGSGTEFTLKISRVEAEDVGIYYCMQALQTWTFGQGTKVEVN
notes: Fully human monoclonal antibody, wild-type variable regions; tested as IgG; also called MY006-7G6
B2: 7G6_G5 (Fc fusion, not shown: a dimerising Fc or GST; small tags and cut ends)
scFv: EIVLTQSPLSLPVTLGQPASISCRSSQSLVHRNGYNYLDWFHQRPGQSPRRLIYMASKRASGVPDRFSGSGSGTDFTLKISRVDAEDVGVYYCMQALQTWTFGQGTKLTVLGGGGSGGGGSGGGGSGGGGSQVQLVQSGGGLVQPGGSLRLSCAASGFAFNDYTMHWVRQAPGKGLEWVSAISYGGTNKYYADSVKGRFTISRDNSKNTLYLQMNSLRAEDTAVYYCAADSGYRSLLHWGQGTLVTVSS
B3: 7G6_G6 (Fc fusion, not shown: a dimerising Fc or GST; small tags and cut ends)
scFv: B2 scFv with Q132E, Q137E, A229K
B4: 7G6_G7 (Fc fusion, not shown: a dimerising Fc or GST; small tags and cut ends)
scFv: EIVLTQSPATLSLSPGERATLSCRSSQSLVHRNGYNYLDWYQQKPGQAPRLLIYMASKRASGVPARFSGSGSGTDFTLTISSLEPEDSALYYCMQALQTWTFGGGTKLEIKGGGGSGGGGSGGGGSGGGGSQVQLVQSGGGLVQPGGSLRLSCAASGFAFNDYTMHWVRQAPGKGLEWVSAISYGGTNKYYADSVKGRFTISRDNSKNTLYLQMNSLRAEDTAVYYCAADSGYRSLLHWGQGTLVTVSS
B5: 7G6_G8 (Fc fusion, not shown: a dimerising Fc or GST; small tags and cut ends)
scFv: B4 scFv with Q132E, Q137E, A229K
B6: 15E3_G4 (Fc fusion, not shown: a dimerising Fc or GST; small tags and cut ends)
scFv: QSVLTQPPSVSAAPGQKVTISCSGTGSNIGHNYVSWYQQLPGTAPKLLIYDNTKRPSGIPDRFSGSKSGTSATLGITGLQTGDEADYYCATWDADLSAVLFGTGTKLTVLGGGGSGGGGSGGGGSGGGGSQVQLVQSGGGLVQPGGSLRLSCAASGFKFSTFYMTWVRQAPGKGLEWVSNIKQDGSEKDYLDSVRGRFTISRDNSKNTLYLQMNSLRAEDTAVYYCAANGLQDSYSGDFFDHWGQGTLVTVSS
B7: 7G6_rb_IGHV1S47_J3+IGKV1S19_JK1-2 (antibody, V domains shown)
VH: QEQLVESGGGLVQPEGSLTLTCKASGFDFSDYTMHWVRQAPGKGPEWIAAISYGGTNKYYADSVKGRFTISRSTSLNTVTLQMTSLTAVDTATYFCARDSGYRSLLHWGQGTLVTVSS
VL: AAVLTQTPSPVSAAVGGTVTIKCRSSQSLVHRNGYNYLDWYQQKPGQPPKLLIYMASKRASGVPDRFSGSGSGTQFTLTISGVQCDDAATYYCMQALQTWTFGGGTKVVVK
B8: 7G6_rb_IGHV1S47_J3+IGKV1S19_JK1-3 (antibody, V domains shown)
VH: B7 VH
VL: B7 VL with F102L, G104P, V108L, V109E, V110I
B9: 7G6_rb_IGHV1S47_J3+K66N_IGKV1S19_JK1-2 (antibody, V domains shown)
VH: B7 VH
VL: B7 VL with K58N
notes: Fully rabbit antibody: 7G6 CDRs grafted onto rabbit variable frameworks
B10: 15E3_rb_IGHV1S8_J5+IGLV2S2_JL5 (antibody, V domains shown)
VH: QKQLVESGGGLDQPAGSLKLSCKDSGFTLSTFYMTWVHQAPGKGLEWIANIKQDGSEKDYLDSVRGRFTISSDNTQNMVDLEMNSLTAADMAIYFCARNGLQDSYSGDFFDHWGQGTLVTVSS
VL: QPALTQPSSVSGALGGSVTITCSGTGSNIGHNYVSWYQQLPGSVPKLLMFDNTKRPSGIPERFSGSKSGTTASLTISGLQPEDEADYYCATWDADLSAVLFGGGTKLTVL
B11: 15E3 Fab (Fab, V domains shown)
VH: EVQLVESGGALVQPGGSLRLSCAASGFKFSTFYMTWIRQAPGKGLEWVANIKQDGSEKDYLDSVRGRFNISRDNAKSVLYLQMNTLSADDTGVYYCTRNGLQDSYSGDFFDHWGQGILVTVSS
VL: QSVLTQPPSISAAPGQKVTISCSGTGSNIGHNYVSWYQQLPRTAPRLLIFDNTKRPSGIPDRFSGSKSGSSATLGITGLQTGDEAHYFCATWDADLSAVLFGGGTKLTVL
B12: 2F8 Fab (Fab, V domains shown)
VH: EVQLVESGGGLVKPGGSLRLSCAASGFIFSDYNMNWVRQAPGKGLEWVSSITRSSRTIYYADSVKGRFTISRDNAKNSLHLQMNSLRDADTAVYYCAREDFDVSTGPYYMDVWGNGTTVIVSS
VL: EIVLTQSPGTLSLSPGERATLSCRASQSVSNMFLVWYQQKPGQAPRLLMYGASTRATDIPDRFSGSGSGTDFTLTISRLEPEDFAVYYCQQNGNSPYTFGQGTKLEIK
B13: 7G6 Fab (Fab, V domains shown)
VH: B1 VH
VL: B1 VL
B14: 17H9 Fab (Fab, V domains shown)
VH: QVQLEEYGGGVVQPGRSLRLSCVASGSTLGTYGMHWVRQAPGKGLEWVAIISPDGGHQDYADPVRGRFTVSRDNSKNTLYLQMDNLRVEDTAVYYCATTLCARTDCTWVRSDSWGQGTLVTVSS
VL: ANVLTQSPGTLSLSPGERATLSCRASQRVSGDYLAWYQQKRGQAPRLLIYGASSRATGIPDRFSGSGSGTDFTLTISRLEPEDFAVYYCQHYNGPPVTFGQGTKLEIK
B15: 2F8 human-mouse IgG chimera (antibody, V domains shown)
VH: B12 VH
VL: B12 VL
B16: 7G6 human-mouse IgG chimera (antibody, V domains shown)
VH: B1 VH
VL: B1 VL
B17: 17H9 human-mouse IgG chimera (antibody, V domains shown)
VH: B14 VH
VL: B14 VL

Target: T1, Ara h 2 (Arachis hypogaea allergen 2)
Assay: ELISA

Binder	binding
B1	binds

Target: T1, Ara h 2 (Arachis hypogaea allergen 2)
Assay: ELISA, scFv-Fc

Binder	binding
B2	binds
B3	binds
B4	binds
B5	binds
B6	binds

Target: T1, Ara h 2 (Arachis hypogaea allergen 2)
Assay: ELISA on Ara h2, scFv-Fc

Binder	binding
B2	binds
B3	binds
B4	binds
B5	binds
B6	binds

Target: T1, Ara h 2 (Arachis hypogaea allergen 2)
Assay: ELISA, purified rabbit antibody

Binder	binding
B7	binds
B8	binds
B9	binds
B10	binds

Target: T1, Ara h 2 (Arachis hypogaea allergen 2)
Assay: SPR, 15E3 Fab immobilised, nAra h 2 then Fabs injected in sequence

Binder	binding
B11	binds
B12	binds
B13	binds
B14	binds

Target: T1, Ara h 2 (Arachis hypogaea allergen 2)
Assay: BLI, 15E3-human IgG1 on anti-human Fc sensor, nAra h 2 then chimeric IgGs in sequence

Binder	binding
B15	binds
B16	binds
B17	binds
